Results reported in patent US20210147525A1 (University of California, published 2021).

Target: human PLXDC1 protein, biotinylated (bait of the antibody library screen) (human)
Assay: antibody library screen on biotinylated PLXDC1 with activating compound

Row | binding | Binder
1 | binds | 11-G5 (antibody, V domains shown) VH: EVQLLESGGGLVQPGGSLRLSCAASGFTFSNYAMSWVRQAPGKGLEWVSTISGSGANTYYADSVKGRFTISRDNSKNTLYLQMNSLRAEDTAVYYCARHHDIAPSWIYYFDYWGQGTLVTVSS VL: EIVLTQSPGTLSLSPGERATLSCRARQSVPSNYLAWYQQKPGQAPRLLIYGASSRATGIPDRFSGSGSGTDFTLTISRLEPEDFAVYYCQQYYSSPLTFGQGTKVEIK
2 | binds | 11-B6 (antibody, V domains shown) VH: EVQLLESGGGLVQPGGSLRLSCAASGFTFSRYAMSWVRQAPGKGLEWVSIISGTGGNTYYADSVKGRFTISRDNSKNTLYLQMNSLRAEDTAVYYCARIDTFAYYYSLYRAFDLWGQGTLVTVSS VL: EIVMTQSPATLSVSPGERATLSCRASQSVGGNLAWYQQKPGQAPRLLIYDASTRATGIPARFSGSGSGTEFTLTISSLQSEDFAVYYCQQYNDWPLTFGQGTKVEIK
3 | binds | 2-B5 (antibody, V domains shown) VH: QVQLVESGGGVVQPGRSLRLSCAASGFIFSDYDMHWVRQAPGKGLEWVAVISHSGSNKYYADSVKGRFTISRDNSKNTLYLQMNSLRAEDTAVYYCARDRSVYLYYGYHYYEGFDVWGQGTLVTVSS VL: EIVMTQSPATLSVSPGERATLSCRASQSVYNNLAWYQQKPGQAPRLLIYGASTRATGIPARFSGSGSGTEFTLTISSLQSEDFAVYYCQQYNDLPLTFGQGTKVEIK
4 | binds | 2-F7 (antibody, V domains shown) VH: EVQLLESGGGLVQPGGSLRLSCAASGFTFSDYAMSWVRQAPGKGLEWVSSIYTSGGRTYYADSVKGRFTISRDNSKNTLYLQMNSLRAEDTAVYYCARGYRYFDHWGQGTLVTVSS VL: EIVMTQSPATLSVSPGERATLSCRASQSVRNNLAWYQQKPGQAPRLLIYGASTRATGIPARFSGSGSGTEFTLTISSLQSEDFAVYYCQQYYTWPRTFGQGTKVEIK
5 | binds | 1-H10 (antibody, V domains shown) VH: EVQLLESGGGLVQPGGSLRLSCAASGFTFSNYAMSWVRQAPGKGLEWVSTISGGGTYYADSVKGRFTISRDNSKNTLYLQMNSLRAEDTAVYYCARSRYWYTKLISYTYGMDVWGQGTLVTVSS VL: QSVLTQPPSVSGAPGQRVTISCTGSSSNIGATYDVHWYQQLPGTAPKLLIYVNNNRPSGVPDRFSGSKSGTSASLAITGLQAEDEADYYCQSYDSSLRAWVFGGGTKLTVL
6 | binds | 1-A1 (antibody, V domains shown) VH: EVQLLESGGGLVQPGGSLRLSCAASGFTFTSYAMSWVRQAPGKGLEWVSAISAGGGYTYYADSVKGRFTISRDNSKNTLYLQMNSLRAEDTAVYYCARYDYNSYFDSWGQGTLVTVSS VL: QSTQPPSVSGAPGQRVTISCTGSSSNIGAGYDVHWYQQLPGTAPKLLIYGNNNRPSGVPDRFSGSKSGTSASLAITGLQAEDEADYYCQSYDRSLSGWVFGGGTKLTVL
7 | binds | 1-A5 (antibody, V domains shown) VH: QVQLVESGGGVVQPGRSLRLSCAASGYAFSSYGMHWVRQAPGKGLEWVAVISHSGSNKYYANSVKGRFTISRDNSKNTLYLQMNSLRAEDTAVYYCARGLAGWEVYPFDVWGQGTLVTVSS VL: QSTQPPSVSGAPGQRVTISCTGSSSNIGAGFDVHWYQQLPGTAPKLLIYDNTNRPSGVPDRFSGSKSGTSASLAITGLQAEDEADYYCQSYDYSLRVWVFGGGTKLTVL
8 | binds | 11-D8 (antibody, V domains shown) VH: EVQLLESGGGLVQPGGSLRLSCAASGFTFSDYAMSWVRQAPGKGLEWVSSISEGGGSTYYADSVKGRFTISRDNSKNTLYLQMNSLRAEDTAVYYCARTKRYFAGGSYYWMDVWGQGTLVTVSS VL: DIQMTQSPSSLSASVGDRVTITCRASQRISSYLNWYQQKPGKAPKLLIYAASSLQSGVPSRFSGSGSGTDFALTISSLQPEDFATYYCQQSYSYPITFGQGTKVEIK
9 | binds | 2-H2 (antibody, V domains shown) VH: QVQLVESGGGVVQPGRSLRLSCAASGFTFSDYGMHWVRQAPGKGLEWVAVISYEGSNEYYADSVKGRFTISRDNSKNTLYLQMNSLRAEDTAVYYCARGSEGSGFDVWGQGTLVTVSS VL: DIQMTQSPSSLSASVGDRVTITCRASQRISNYLNWYQQKPGKAPKLLIYAASSLQSGVPSRFSGSGSGTDFTLTISSLQPEDFATYYCQQSYSPPYTFGQGTKVEIK
10 | binds | 11-H8 (antibody, V domains shown) VH: EVQLLESGGGLVQPGGSLRLSCAASGFTFSNYAMSWVRQAPGKGLEWVSSIYGSGHRTYYADSVKGRFTISRDNSKNTLYLQMNSLRAEDTAVYYCARVASSAEYAFDHWGQGTLVTVSS VL: DIQMTQSPSSLSASVGDRVTITCRASQSISNYLNWYQQKSGKAPKLLIYAASSLQSGVPSRFSGSGSGTDFTLTISSLQPEDFATYYCQQSYTVPLTFGQGTKVEIK
11 | binds | 2-H9 (antibody, V domains shown) VH: EVQLLESGGGLVQPGGSLRLSCAASGFTFSTYAMSWVRQAPGKGLEWVSSIYGSGGKTYYADSVKGRFTISRDNSKNTLYLQMNSLRAEDTAVYYCARTDYSLYYQFDYWGQGTLVTVSS VL: DIQMTQSPSSLSASVGDRVTITCRASQSISRYLNWYQQKPGKAPKLLIYAASSLQSGVPSRFSGSGSGTDFTLTISSLQPEDLATYYCQQSYSYPVTFGQGTKVEIK
12 | binds | 11-D11 (antibody, V domains shown) VH: EVQLLESGGGLVQPGGSLRLSCAASGFTFSTYAMSWVRQAPGKGLEWVSSISGSGGKTYYADSVKGRFTISRDNSKNTLYLQMNSLRAEDTAVYYCARDIYGITYDGYTYYDGMDVWGQGTLVTVSS VL: DIQMTQSPSSLSASVGDRVTITCRASQSIYNYLNWHQQKPGKAPKLLIYAASSLQSGVPSRFSGSGSGTDFTLTISSLQPEDFATYYCQQSDSPPWTFGQGTKVEIK
13 | binds | 2-F8 (antibody, V domains shown) VH: EVQLLESGGGLVQPGGSLRLSCAASGFTFPNYAMSWVRQAPGKGLEWVSTIYGRGERTYYADSVKGRFTISRDNSKNTLYLQMNSLRAEDTAVYYCARVSVVWSYAFDYWGQGTLVTVSS VL: DIQMTQSPSSLSASVGDRVTITCRASQDISTYLNWYQQKPGKAPKLLIYAASSLQSGVPSRFSGSGSGTDFTLTISSLQPEDFATYYCQQSYSYPLTFGQGTKVEIK
14 | binds | 11-G9 (antibody, V domains shown) VH: EVQLLESGGGLVQPGGSLRLSCAASGFTFPDYAMSWVRQAPGKGLEWVSTIYAGGGRTYYADSVKGRFTISRDNSKNTLYLQMNSLRAEDTAVYYCARGLTRHYGYSFDHWGQGTLVTVSS VL: DIQMTQSPSSLSASVGDRVTITCRASQTISSYLNWYQQKPGKAPKLLIYSASSLQSGVPSRFSGSGSGTDFTLTISSLQPEDFATYYCQQSYTFPLTFGQGTKVEIK
15 | binds | 2-B4 (antibody, V domains shown) VH: QVQLVESGGGVVQPGRSLRLSCAASGFTFSNYGMHWVRQAPGKGLEWVAVISYHGRNEYYADSVKGRFTISRDNSKNTLYLQMNSLRAEDTAVYYCARGDDQDAFDPWGQGTLVTVSS VL: DIQMTQSPSSLSASVGDRVTITCRASQSISNYLNWYQQKPGKAPKLLIYAASSLQSGVPSRFSGSGSGTDFTLTISSLQPEDFATYYCQQSFSAPYTFGQGTKVEIK
16 | binds | 3-C4 (antibody, V domains shown) VH: EVQLLESGGGLVQPGGSLRLSCAASGFTFSSYAMSWVRQAPGKGLEWVSTIYGGGSYTYYADSVKGRFTISRDNSKNTLYLQMNSLRAEDTAVYYCARAEVDDYWYLYMDVWGQGTLVTVSS VL: DIQMTQSPSSLSASVGDRVTITCRASQDIGNYLNWYQQKPGKAPKLLIYAASSLQSGVPSRFSGSGSGTDFTLTISSLQPEDFATYYCQQSYTFPLTFGQGTKVEIK

These are yes or no findings as the source states them, for the method shown. A result given as binding can be weak or reduced; the word gives no strength.
